PubChem BioAssay AID504784 | Drosophila RNAi Screening Center, 2011
The deposit covers about 17,000 reagents; below is an unselected part of those that have a named target and a result. 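Each column is one replicate's B-score; the combined score over replicates was not deposited, so single values may mislead.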

Purpose: 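Search for regulators of lipid droplet storage in oleate-fed fly cells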 (primary screen)
Cells: Drosophila Kc167 embryonic cells
Reagents: long dsRNA against Drosophila genes, about 250 ng dsRNA per well
Time to read-out: 4 days
Treatment: cells fed 400 µM oleic acid bound to BSA
Detection: 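Cells imaged and segmented; ratio of lipid droplet area to nuclear area, log-transformed, then normalised as a B-score over the screen; higher means more stored lipid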
Reading the numbers: droplet/nuclear area B-score: higher = more stored lipid (overstorage)

| Gene | dsRNA | droplet/nuclear area B-score, replicate 1 | droplet/nuclear area B-score, replicate 2 | droplet/nuclear area B-score, replicate 3 |
| --- | --- | --- | --- | --- |
| TTLL1A (Tubulin tyrosine ligase-like 1A) | DRSC20121 | 0.148 | -0.00766 | – |
| CG31388 | DRSC15254 | -2.95 | 3.12 | – |
| CG9915 | DRSC21565 | -1.03 | -1.18 | – |
| CG4678 | DRSC19911 | 0.721 | -0.72 | – |
| CG4678 | DRSC19912 | 1.94 | 0.0156 | – |
| RhoGAP100F (Rho GTPase activating protein at 100F) | DRSC15409 | -0.255 | 0.674 | – |
| Lasp | DRSC10379 | 1.15 | 1.13 | – |
| Bx42 | DRSC17743 | -2.86 | -2.31 | -2.18 |
| RpS19a (Ribosomal protein S19a) | DRSC20281 | 2.2 | 4.67 | – |
| CG14757 | DRSC06492 | -1.13 | -0.736 | – |
| IKKepsilon (I-kappaB kinase epsilon) | DRSC03550 | 1.13 | 3.6 | – |
| DCTN4-p62 (Dynactin 4, p62 subunit) | DRSC06101 | -0.774 | -4.58 | – |
| en (engrailed) | DRSC07609 | 0.426 | -0.121 | – |
| CG31029 | DRSC15422 | -1.93 | 1.02 | – |
| Tom70 (Translocase of outer membrane 70) | DRSC02990 | – | -1.16 | -1.01 |
| CG4960 | DRSC15684 | 0.0834 | 2.65 | – |
| Sbat (Sabbat) | DRSC00160 | 1.64 | 0.375 | – |
| Dpp10 (Dipeptidyl peptidase 10) | DRSC00942 | -0.711 | -3.29 | – |
| Dpp10 (Dipeptidyl peptidase 10) | DRSC02139 | -0.558 | -1.23 | – |
| CG13258 | DRSC02244 | 1.65 | 1.07 | – |
| Sym (Symplekin) | DRSC12301 | 0.957 | 0.0911 | – |
| raptor | DRSC18359 | 0.0377 | -0.00954 | – |
| CG32248 | DRSC08102 | 1.64 | 0.744 | – |
| CG33325 | DRSC12699 | 0.0125 | -0.236 | – |
| teq (Tequila) | DRSC10298 | -0.423 | 0.0741 | – |
| teq (Tequila) | DRSC11301 | 0.37 | -0.133 | – |
| teq (Tequila) | DRSC11302 | -0.954 | -0.711 | – |
| CG31468 | DRSC13637 | -1.16 | -0.829 | – |
| TpnC47D (Troponin C at 47D) | DRSC07564 | -1.4 | -1.18 | – |
| CG6209 | DRSC06968 | -0.573 | -1.38 | – |
| CG12011 | DRSC08219 | -0.816 | -0.00621 | – |
| CG17600 | DRSC20640 | -1.87 | 0.602 | – |
| CG17600 | DRSC22753 | -1.2 | -0.664 | – |
| mtgo (miles to go) | DRSC02245 | -0.0398 | -0.00552 | -2.98 |
| mtgo (miles to go) | DRSC02246 | 3.26 | 0.0102 | 0.457 |
| mtgo (miles to go) | DRSC02769 | 3.61 | -1.64 | – |
| mtgo (miles to go) | DRSC21392 | 1.51 | 3.13 | – |
| mtgo (miles to go) | DRSC21743 | 1.64 | 2.06 | – |
| CG18132 | DRSC00518 | -0.123 | -1.69 | – |
| CG9263 | DRSC03176 | -0.879 | -1.16 | – |
| CG5245 | DRSC15750 | -0.29 | -0.313 | – |
| CG3097 | DRSC18275 | -0.88 | 0.715 | – |
| CG3337 | DRSC15478 | 1.3 | 0.000542 | – |
| CG9702 | DRSC16540 | 1.25 | 0.297 | – |
| Cyp6a18 (Cytochrome P450 6a18) | DRSC16632 | -1.43 | 0.487 | – |
| CG3223 | DRSC15468 | -0.87 | 0.0245 | – |
| Liprin-beta | DRSC09795 | 0.893 | 1.22 | – |
| Liprin-beta | DRSC23339 | 0.779 | -0.913 | – |

4 entries from above, limited to “droplet/nuclear area B-score, replicate 2”:
RhoGAP100F (Rho GTPase activating protein at 100F) [DRSC15409] = 0.674
Lasp [DRSC10379] = 1.13
Bx42 [DRSC17743] = -2.31
RpS19a (Ribosomal protein S19a) [DRSC20281] = 4.67
